# These are yes or no findings as the source states them, for the method shown. Binding seen in cells or lysates may run through a third protein. Some results given as binding are weak or reduced against the parent protein; the word gives no strength.
# Protein sequences, listed by entry. Tags and fused reporters are not part of them.
# UniProt Q9NZJ0: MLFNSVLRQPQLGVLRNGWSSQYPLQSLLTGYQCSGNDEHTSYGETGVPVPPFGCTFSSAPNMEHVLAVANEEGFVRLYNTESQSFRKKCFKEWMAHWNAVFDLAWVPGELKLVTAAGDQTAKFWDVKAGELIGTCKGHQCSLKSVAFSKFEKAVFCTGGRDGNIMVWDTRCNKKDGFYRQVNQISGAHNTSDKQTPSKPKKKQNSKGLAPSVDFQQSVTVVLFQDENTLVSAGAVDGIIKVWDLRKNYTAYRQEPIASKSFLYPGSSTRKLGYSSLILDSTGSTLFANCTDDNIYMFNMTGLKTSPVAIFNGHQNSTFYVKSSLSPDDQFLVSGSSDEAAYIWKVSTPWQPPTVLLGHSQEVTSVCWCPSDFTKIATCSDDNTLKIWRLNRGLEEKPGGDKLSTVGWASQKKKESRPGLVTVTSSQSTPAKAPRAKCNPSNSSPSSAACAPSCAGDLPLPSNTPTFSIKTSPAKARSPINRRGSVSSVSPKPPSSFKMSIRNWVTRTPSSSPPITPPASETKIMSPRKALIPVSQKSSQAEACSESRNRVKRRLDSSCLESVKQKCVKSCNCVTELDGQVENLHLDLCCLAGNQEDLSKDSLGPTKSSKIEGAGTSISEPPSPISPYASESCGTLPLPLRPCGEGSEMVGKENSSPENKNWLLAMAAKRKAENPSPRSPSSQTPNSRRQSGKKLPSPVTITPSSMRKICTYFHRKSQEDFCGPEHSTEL
# UniProt Q92466: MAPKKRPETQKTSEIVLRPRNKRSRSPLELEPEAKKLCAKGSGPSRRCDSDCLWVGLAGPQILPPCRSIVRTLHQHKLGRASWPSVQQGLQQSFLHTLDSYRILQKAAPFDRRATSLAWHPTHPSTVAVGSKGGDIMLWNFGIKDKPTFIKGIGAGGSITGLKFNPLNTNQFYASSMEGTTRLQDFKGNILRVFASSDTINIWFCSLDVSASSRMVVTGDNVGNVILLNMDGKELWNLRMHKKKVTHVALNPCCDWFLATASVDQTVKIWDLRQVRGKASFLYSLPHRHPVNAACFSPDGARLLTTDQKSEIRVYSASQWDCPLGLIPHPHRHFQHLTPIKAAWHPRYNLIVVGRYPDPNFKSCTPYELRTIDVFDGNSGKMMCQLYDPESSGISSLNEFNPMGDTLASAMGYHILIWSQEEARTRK
# What was measured:
# [1] = molecular target: CDT2 (human (endogenous in HCT116)) (UniProt Q9NZJ0); test: co-IP; endogenous proteins; HCT116 cells treated with MG132 (10 µg/mL) for 4 h; lysate in IP buffer (0.5% Nonidet P40, 50 mM Hepes pH 7.5, 150 mM NaCl, 1 mM EDTA); precipitated with NRS, anti-CDT2 or anti-DDB2 antibodies overnight at 4 °C, protein G beads; Western blot
# [2] = molecular target: DNA damage binding protein 2 (DDB2) (human (endogenous in HCT116)) (UniProt Q92466); test: as above
Substance,binding [1],binding [2]
DNA damage binding protein 2 (DDB2) (from UniProt Q92466 1-427),binds,
CDT2 (from UniProt Q9NZJ0 1-730),,binds

# — article PMC7869461
